# Test results published in the supplement of paper PMC10849652.
# By UniProt entry, the sequences of proteins in these tests, tags left out. Where a name states a change or a piece, a line headed by the entry shows the natural chain unless it says otherwise.
# UniProt Q8N3F8: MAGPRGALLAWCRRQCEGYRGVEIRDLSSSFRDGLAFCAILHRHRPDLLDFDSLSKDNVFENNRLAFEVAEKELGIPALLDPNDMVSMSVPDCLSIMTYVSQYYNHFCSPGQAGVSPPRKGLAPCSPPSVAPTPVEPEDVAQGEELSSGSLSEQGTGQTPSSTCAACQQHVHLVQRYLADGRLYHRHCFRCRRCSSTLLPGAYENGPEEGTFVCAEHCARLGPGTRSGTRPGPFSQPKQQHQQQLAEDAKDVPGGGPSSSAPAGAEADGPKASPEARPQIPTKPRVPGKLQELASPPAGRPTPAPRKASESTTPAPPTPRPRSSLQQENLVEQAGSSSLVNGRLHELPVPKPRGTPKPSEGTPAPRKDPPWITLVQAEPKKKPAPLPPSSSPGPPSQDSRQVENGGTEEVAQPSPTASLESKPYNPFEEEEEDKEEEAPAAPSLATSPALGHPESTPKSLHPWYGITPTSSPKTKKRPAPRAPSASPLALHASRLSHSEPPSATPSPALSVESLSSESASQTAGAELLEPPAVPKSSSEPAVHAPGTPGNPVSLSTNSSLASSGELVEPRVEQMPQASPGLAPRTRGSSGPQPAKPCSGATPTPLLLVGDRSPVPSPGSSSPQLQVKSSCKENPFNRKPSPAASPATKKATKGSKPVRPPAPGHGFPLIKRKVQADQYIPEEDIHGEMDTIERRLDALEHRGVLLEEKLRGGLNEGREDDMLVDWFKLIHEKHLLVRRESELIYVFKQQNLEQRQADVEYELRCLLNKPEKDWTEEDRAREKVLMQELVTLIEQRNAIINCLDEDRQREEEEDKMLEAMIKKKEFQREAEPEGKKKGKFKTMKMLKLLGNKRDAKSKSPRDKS
# UniProt Q567V2: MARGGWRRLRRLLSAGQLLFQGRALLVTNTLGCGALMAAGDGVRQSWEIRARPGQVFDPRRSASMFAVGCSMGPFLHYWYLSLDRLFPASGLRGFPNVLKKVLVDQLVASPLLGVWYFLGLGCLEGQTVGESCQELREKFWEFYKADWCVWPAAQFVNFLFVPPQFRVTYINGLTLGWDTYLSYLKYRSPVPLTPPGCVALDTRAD
# UniProt Q8NHP6: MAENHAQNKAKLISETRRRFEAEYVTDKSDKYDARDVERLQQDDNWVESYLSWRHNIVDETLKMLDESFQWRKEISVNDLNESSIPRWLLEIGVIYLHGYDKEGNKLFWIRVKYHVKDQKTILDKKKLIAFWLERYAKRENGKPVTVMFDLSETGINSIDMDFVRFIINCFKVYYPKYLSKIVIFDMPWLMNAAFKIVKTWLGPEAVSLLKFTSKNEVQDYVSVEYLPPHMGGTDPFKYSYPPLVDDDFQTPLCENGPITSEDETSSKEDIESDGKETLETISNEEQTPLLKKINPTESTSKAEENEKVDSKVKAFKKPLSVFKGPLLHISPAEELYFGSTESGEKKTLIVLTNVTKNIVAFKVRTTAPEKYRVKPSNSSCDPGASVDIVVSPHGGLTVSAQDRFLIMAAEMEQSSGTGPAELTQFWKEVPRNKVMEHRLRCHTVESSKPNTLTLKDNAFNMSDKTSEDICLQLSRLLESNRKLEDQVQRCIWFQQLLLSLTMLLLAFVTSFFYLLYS
# UniProt Q9HCE1: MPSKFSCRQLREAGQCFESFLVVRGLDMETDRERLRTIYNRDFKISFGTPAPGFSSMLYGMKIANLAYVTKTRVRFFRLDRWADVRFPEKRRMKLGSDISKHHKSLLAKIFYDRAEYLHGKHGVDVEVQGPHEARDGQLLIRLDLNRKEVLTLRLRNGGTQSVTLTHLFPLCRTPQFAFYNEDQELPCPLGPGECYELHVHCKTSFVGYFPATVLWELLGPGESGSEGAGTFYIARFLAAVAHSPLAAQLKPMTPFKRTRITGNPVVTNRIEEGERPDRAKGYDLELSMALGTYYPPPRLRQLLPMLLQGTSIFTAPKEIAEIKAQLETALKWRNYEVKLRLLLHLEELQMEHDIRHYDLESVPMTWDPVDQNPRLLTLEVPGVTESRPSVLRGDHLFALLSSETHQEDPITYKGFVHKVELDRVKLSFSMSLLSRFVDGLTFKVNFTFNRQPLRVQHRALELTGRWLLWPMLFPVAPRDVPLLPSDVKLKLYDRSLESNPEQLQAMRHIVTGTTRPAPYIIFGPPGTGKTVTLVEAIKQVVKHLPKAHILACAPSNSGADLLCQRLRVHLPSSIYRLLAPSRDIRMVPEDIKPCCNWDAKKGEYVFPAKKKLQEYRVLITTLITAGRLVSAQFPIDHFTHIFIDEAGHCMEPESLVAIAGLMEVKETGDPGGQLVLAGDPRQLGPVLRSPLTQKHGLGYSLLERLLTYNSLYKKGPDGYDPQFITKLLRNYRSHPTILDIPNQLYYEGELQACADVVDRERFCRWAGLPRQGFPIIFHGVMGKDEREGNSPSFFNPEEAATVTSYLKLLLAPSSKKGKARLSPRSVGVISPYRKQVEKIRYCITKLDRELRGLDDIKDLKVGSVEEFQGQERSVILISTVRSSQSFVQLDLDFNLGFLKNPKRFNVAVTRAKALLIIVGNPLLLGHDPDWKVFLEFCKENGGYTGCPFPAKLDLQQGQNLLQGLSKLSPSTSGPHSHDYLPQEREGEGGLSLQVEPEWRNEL
# UniProt P22033: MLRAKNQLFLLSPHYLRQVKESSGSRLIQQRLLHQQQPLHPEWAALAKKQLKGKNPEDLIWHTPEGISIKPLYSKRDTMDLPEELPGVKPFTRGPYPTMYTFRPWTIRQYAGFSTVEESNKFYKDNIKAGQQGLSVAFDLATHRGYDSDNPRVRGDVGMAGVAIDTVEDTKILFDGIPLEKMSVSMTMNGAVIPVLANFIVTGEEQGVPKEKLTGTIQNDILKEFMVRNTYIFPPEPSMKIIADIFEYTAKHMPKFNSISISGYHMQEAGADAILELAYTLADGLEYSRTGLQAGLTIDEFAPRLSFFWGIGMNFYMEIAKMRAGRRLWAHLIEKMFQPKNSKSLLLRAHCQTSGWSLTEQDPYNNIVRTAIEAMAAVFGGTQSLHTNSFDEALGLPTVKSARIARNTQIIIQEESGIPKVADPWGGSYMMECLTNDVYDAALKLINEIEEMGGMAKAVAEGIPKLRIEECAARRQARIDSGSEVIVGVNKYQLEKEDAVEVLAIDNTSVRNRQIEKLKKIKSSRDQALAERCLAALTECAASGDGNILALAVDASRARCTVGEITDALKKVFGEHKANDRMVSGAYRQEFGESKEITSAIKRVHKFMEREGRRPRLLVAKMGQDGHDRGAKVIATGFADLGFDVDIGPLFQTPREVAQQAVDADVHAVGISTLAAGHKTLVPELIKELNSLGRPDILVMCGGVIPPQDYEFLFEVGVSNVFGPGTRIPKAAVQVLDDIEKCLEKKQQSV
# UniProt Q6NTE8: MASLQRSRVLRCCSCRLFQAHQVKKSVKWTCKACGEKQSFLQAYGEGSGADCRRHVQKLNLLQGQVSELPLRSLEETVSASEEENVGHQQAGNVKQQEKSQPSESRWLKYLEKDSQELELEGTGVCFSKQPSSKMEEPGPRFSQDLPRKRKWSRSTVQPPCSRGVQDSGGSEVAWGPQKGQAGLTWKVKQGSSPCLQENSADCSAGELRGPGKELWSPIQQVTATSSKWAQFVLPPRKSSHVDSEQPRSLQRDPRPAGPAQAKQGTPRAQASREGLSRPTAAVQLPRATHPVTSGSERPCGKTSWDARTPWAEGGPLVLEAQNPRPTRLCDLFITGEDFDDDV
# UniProt Q8N108: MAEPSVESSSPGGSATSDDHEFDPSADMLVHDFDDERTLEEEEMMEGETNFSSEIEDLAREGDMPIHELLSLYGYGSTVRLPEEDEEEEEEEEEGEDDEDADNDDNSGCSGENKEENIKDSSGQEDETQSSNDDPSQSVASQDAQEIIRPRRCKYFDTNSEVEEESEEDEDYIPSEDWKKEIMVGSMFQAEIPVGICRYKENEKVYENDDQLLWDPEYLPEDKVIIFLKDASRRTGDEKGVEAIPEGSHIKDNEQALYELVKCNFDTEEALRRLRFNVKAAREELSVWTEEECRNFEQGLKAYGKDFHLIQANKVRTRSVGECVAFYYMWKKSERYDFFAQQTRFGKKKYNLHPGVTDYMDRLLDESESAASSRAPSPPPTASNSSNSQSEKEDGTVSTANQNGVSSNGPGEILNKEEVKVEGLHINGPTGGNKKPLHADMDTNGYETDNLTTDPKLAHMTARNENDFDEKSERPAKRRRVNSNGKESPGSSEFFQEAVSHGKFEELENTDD
# UniProt Q13201: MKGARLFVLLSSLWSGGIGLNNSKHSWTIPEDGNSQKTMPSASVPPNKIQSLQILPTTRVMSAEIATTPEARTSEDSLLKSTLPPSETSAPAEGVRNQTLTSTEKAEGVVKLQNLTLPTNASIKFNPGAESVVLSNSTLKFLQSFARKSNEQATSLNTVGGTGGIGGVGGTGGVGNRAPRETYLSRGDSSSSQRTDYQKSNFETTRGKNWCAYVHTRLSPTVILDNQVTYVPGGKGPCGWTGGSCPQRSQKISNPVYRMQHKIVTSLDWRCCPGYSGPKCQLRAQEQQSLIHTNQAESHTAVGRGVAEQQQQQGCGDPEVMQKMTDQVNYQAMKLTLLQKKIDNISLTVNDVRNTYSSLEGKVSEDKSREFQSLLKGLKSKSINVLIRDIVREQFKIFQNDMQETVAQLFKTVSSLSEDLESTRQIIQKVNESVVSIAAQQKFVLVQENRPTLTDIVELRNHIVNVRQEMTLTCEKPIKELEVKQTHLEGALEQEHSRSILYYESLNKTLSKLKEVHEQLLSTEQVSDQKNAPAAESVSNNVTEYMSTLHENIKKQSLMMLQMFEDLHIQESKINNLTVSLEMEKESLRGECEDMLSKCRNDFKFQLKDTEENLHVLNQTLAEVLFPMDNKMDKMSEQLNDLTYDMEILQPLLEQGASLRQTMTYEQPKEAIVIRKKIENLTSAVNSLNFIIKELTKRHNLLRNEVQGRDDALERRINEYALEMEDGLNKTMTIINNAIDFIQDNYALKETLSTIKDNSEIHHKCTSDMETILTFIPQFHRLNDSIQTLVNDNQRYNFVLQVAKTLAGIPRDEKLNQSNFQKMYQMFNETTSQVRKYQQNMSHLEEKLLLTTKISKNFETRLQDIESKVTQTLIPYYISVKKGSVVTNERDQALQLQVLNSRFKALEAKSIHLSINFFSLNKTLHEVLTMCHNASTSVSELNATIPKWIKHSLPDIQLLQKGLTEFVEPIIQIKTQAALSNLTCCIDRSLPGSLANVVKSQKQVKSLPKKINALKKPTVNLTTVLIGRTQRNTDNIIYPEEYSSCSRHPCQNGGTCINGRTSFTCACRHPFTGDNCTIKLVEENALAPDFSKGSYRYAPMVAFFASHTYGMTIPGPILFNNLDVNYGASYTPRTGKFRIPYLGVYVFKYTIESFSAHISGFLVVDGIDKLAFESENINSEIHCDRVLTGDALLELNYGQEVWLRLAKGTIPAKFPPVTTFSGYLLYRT
# UniProt Q8IY33: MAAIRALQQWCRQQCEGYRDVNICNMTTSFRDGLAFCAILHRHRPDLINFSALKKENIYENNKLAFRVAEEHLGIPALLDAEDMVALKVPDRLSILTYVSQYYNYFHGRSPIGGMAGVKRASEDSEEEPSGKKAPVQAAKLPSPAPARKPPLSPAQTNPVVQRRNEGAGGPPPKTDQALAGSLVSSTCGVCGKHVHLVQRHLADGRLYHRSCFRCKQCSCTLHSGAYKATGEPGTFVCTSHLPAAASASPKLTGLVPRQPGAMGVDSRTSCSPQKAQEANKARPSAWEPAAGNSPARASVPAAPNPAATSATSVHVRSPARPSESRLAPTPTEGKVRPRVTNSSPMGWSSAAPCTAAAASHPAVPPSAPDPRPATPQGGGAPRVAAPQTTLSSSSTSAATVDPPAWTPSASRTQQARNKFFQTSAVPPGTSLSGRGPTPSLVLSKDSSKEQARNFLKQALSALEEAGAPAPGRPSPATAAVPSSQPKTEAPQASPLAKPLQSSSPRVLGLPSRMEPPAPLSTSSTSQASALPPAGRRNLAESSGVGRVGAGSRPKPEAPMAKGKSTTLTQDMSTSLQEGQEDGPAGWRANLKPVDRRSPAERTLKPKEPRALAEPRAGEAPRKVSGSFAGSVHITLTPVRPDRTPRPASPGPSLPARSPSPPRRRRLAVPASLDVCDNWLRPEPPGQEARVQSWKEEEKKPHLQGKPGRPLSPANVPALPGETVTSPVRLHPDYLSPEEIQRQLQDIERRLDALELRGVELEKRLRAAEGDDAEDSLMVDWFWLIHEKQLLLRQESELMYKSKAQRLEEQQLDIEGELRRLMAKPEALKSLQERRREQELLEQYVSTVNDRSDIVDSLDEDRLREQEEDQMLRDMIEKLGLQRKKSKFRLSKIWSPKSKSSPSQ
# UniProt Q9NYP9: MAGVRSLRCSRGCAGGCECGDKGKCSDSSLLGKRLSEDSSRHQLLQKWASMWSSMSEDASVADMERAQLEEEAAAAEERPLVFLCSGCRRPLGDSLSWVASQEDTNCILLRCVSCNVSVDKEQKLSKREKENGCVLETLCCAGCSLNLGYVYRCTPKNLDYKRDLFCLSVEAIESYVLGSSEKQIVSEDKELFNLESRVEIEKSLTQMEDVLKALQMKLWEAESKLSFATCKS
# The other results are listed elsewhere or left out.
# How the values were obtained:
# Test in all cases: log2 fold change, soluble protein after heating vs DMSO (PISA); higher = thermal stabilisation; K562 cells, 10 uM, 30 min; active = over 0.2 and 3.5 SD of the protein, either way, in both replicates (recomputed)
# [1] = compound: CC1=C(C=C(C=C1)NC(=O)C2=CC(=CC=C2)C(C)(C)C#N)NC3=CC4=C(C=C3)N=CN(C4=O)C
# Summary of the method: (§1)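 Thermal stability values are relative to control samples and come from duplicates. They are expressed as log2 fold changes. For measurement, K562 cells (2×10^6 cells/mL) received 10 μM compound for 30 min, and aliquots were heated for 3 min over 48°C-58°C, pooled, and extracted at 4°C in PBS with 0.5% NP-40. Soluble protein, the supernatant after 21,000xg for 90 min, was quantified by TMTpro 16plex LC-MS/MS with equalised channel sums.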
# [2] = compound: CC1=C(C=C(C=C1)NC(=O)C2=CC(=CC=C2)N(C)C)NC(=O)C3=CC=C(C=C3)O
# Summary of the method: as §1
# [3] = compound: CC1=CC=C(C=C1)SC2=C3C=C(SC3=CN=C2)C(=O)N
# Summary of the method: as §1
# [4] = compound: CC1=NC(=CC=C1)C2=C(N=C(N2)C(C)(C)C)C3=CC4=NC=CN=C4C=C3
# Summary of the method: as §1
# Nexturastat A = compound: CCCCN(Cc1ccc(C(=O)NO)cc1)C(=O)Nc1ccccc1 [Nexturastat A]
# Summary of the method: as §1
# vemurafenib = compound: CCCS(=O)(=O)Nc1ccc(F)c(C(=O)c2c[nH]c3ncc(-c4ccc(Cl)cc4)cc23)c1F [vemurafenib]
# Summary of the method: as §1
# [5] = compound: CCCS(=O)(=O)Nc1ccc(F)c(C(=O)c2c[nH]c3ncc(Cl)cc23)c1F
# Summary of the method: as §1
# [6] = compound: CCCc1cc(C)[nH]c(=O)c1CNC(=O)c1cc(-c2ccnc(N3CCN(C)CC3)c2)cc2c1cnn2C(C)C
# Summary of the method: as §1
# givinostat = compound: CCN(CC)Cc1ccc2cc(COC(=O)Nc3ccc(C(=O)NO)cc3)ccc2c1 [givinostat]
# Summary of the method: as §1
# barasertib = compound: CCN(CCCOc1ccc2c(Nc3cc(CC(=O)Nc4cccc(F)c4)[nH]n3)ncnc2c1)CCOP(=O)(O)O [barasertib]
# Summary of the method: as §1
Target,log2 fold change [1],log2 fold change [2],log2 fold change [3],log2 fold change [4],log2 fold change (Nexturastat A),log2 fold change (vemurafenib),log2 fold change [5],log2 fold change [6],log2 fold change (givinostat),log2 fold change (barasertib)
MLLT1 (UniProt Q03111),inactive: -0.018,inactive: 0.064,inactive: -0.079,inactive: -0.047,inactive: 0.033,inactive: 0.006,inactive: -0.033,inactive: 0.029,inactive: 0.066,inactive: -0.006
MICALL1 (UniProt Q8N3F8),inactive: -0.04,inactive: -0.009,inactive: -0.042,inactive: -0.069,inactive: -0.015,inactive: 0,inactive: -0.109,inactive: 0.194,inactive: 0.063,–
MPV17L2 (UniProt Q567V2),inactive: -0.022,inactive: 0.028,inactive: -0.027,inactive: 0.091,inactive: -0.145,inactive: 0.059,inactive: -0.037,inactive: 0.014,inactive: -0.035,inactive: -0.012
MOSPD2 (UniProt Q8NHP6),inactive: 0.015,inactive: -0.027,inactive: -0.01,inactive: -0.011,inactive: 0.024,inactive: 0.054,inactive: -0.006,inactive: -0.056,inactive: -0.022,inactive: 0.003
MOV10 (UniProt Q9HCE1),inactive: 0.044,inactive: 0.017,inactive: -0.055,inactive: -0.067,inactive: 0.221,inactive: -0.027,inactive: -0.048,inactive: 0.054,inactive: -0.006,inactive: -0.05
MOB4 (UniProt Q9Y3A3),inactive: 0.041,inactive: -0.023,inactive: 0.032,inactive: 0.042,inactive: -0.04,inactive: -0.028,inactive: 0.031,inactive: -0.009,inactive: -0.058,inactive: 0.03
MMUT (UniProt P22033),inactive: 0.025,inactive: -0.015,inactive: 0.003,inactive: 0.019,inactive: -0.093,inactive: 0.024,inactive: 0,inactive: -0.038,inactive: -0.014,inactive: 0.032
MINDY4 (UniProt Q4G0A6),inactive: -0.004,inactive: -0.08,–,–,–,–,–,–,–,–
MRNIP (UniProt Q6NTE8),inactive: 0.107,inactive: 0.031,inactive: -0.003,inactive: 0.046,inactive: -0.023,inactive: 0.159,inactive: -0.01,inactive: 0.004,inactive: 0.265,–
MRPL34 (UniProt Q9BQ48),inactive: -0.022,inactive: -0.01,inactive: 0.019,inactive: -0.052,inactive: 0.259,inactive: -0.062,inactive: 0.051,inactive: 0.066,inactive: -0.021,inactive: 0.022
MRPL52 (UniProt Q86TS9),inactive: -0.003,–,–,–,–,–,–,–,–,–
MRI1 (UniProt Q9BV20),inactive: -0.022,inactive: -0.03,inactive: -0.008,inactive: 0.013,inactive: -0.051,inactive: 0.03,inactive: 0.026,inactive: -0.037,inactive: 0.009,inactive: 0.019
MRPL16 (UniProt Q9NX20),inactive: 0.019,inactive: -0.036,inactive: -0.069,inactive: -0.047,inactive: 0.059,inactive: -0.095,inactive: 0.009,inactive: 0.04,inactive: 0.001,inactive: -0.045
MRPL3 (UniProt P09001),inactive: 0.072,inactive: -0.065,inactive: -0.055,inactive: -0.05,inactive: 0.172,inactive: -0.047,inactive: -0.045,inactive: -0.044,inactive: 0.031,inactive: -0.018
MIER1 isoform 12 (UniProt Q8N108),inactive: 0.003,inactive: 0.016,inactive: 0.002,inactive: 0.012,active: 0.306,inactive: -0.006,inactive: 0.008,inactive: -0.013,active: 0.31,inactive: 0.01
MMRN1 (UniProt Q13201),inactive: -0.008,inactive: -0.003,–,–,–,–,–,–,–,–

# Single values from the entries so far:
# MMRN1 (UniProt Q13201) | log2 fold change [2]: inactive: -0.003
# MRPL52 (UniProt Q86TS9) | log2 fold change [1]: inactive: -0.003

# Next records

Target,log2 fold change [1],log2 fold change [2],log2 fold change [3],log2 fold change [4],log2 fold change (Nexturastat A),log2 fold change (vemurafenib),log2 fold change [5],log2 fold change [6],log2 fold change (givinostat),log2 fold change (barasertib)
MRPL19 (UniProt P49406),inactive: 0.106,inactive: -0.032,inactive: -0.049,inactive: -0.034,inactive: 0.169,inactive: -0.073,inactive: -0.033,inactive: 0.071,inactive: -0.06,inactive: -0.085
MRPL11 (UniProt Q9Y3B7),inactive: 0.064,inactive: -0.04,inactive: -0.068,inactive: -0.031,inactive: 0.193,inactive: -0.033,inactive: -0.001,inactive: 0.065,inactive: 0.056,inactive: -0.046
MID1IP1 (UniProt Q9NPA3),inactive: 0.064,inactive: -0.121,inactive: -0.012,inactive: -0.189,inactive: -0.103,inactive: 0.15,inactive: -0.027,inactive: 0.181,inactive: 0.025,inactive: 0.038
MRPL54 (UniProt Q6P161),inactive: -0.045,inactive: 0.086,inactive: -0.044,inactive: -0.103,inactive: 0.105,inactive: -0.061,inactive: -0.052,inactive: -0.106,inactive: -0.049,inactive: -0.088
MRPL1 (UniProt Q9BYD6),inactive: 0.02,inactive: 0.019,inactive: -0.005,inactive: -0.016,inactive: 0.24,inactive: -0.037,inactive: -0.014,inactive: 0.043,inactive: 0.046,inactive: 0.009
MRPL45 (UniProt Q9BRJ2),inactive: -0.041,inactive: -0.082,inactive: -0.087,inactive: -0.057,inactive: 0.166,inactive: -0.022,inactive: -0.008,inactive: 0.086,inactive: 0.052,inactive: -0.091
MICALL2 (UniProt Q8IY33),inactive: 0.033,inactive: -0.052,inactive: 0.051,inactive: -0.065,inactive: -0.027,inactive: 0.107,inactive: 0.018,inactive: 0.039,inactive: 0.042,inactive: 0.052
MRPL47 (UniProt Q9HD33),inactive: 0.035,inactive: -0.045,inactive: -0.03,inactive: -0.078,inactive: 0.139,inactive: -0.117,inactive: -0.097,inactive: 0.073,inactive: 0.052,inactive: -0.047
MMAB (UniProt Q96EY8),inactive: -0.023,inactive: -0.009,inactive: 0.031,inactive: 0.005,inactive: -0.061,inactive: -0.001,inactive: -0.002,inactive: 0.011,inactive: 0.006,inactive: 0.017
MRPL41 (UniProt Q8IXM3),inactive: -0.02,inactive: -0.037,inactive: -0.077,inactive: 0,inactive: 0.26,inactive: -0.174,inactive: -0.068,inactive: 0.029,inactive: -0.078,inactive: 0.007
MRPL21 (UniProt Q7Z2W9),inactive: 0.087,inactive: 0.001,inactive: 0.011,inactive: -0.058,inactive: 0.164,inactive: -0.059,inactive: 0.068,inactive: 0.054,inactive: -0.02,inactive: -0.085
MIS18A (UniProt Q9NYP9),inactive: 0.006,inactive: -0.021,inactive: 0.008,inactive: 0.064,inactive: 0.048,inactive: 0.03,inactive: 0.062,inactive: -0.01,inactive: -0.035,inactive: 0.026
MRPL12 (UniProt P52815),inactive: 0.035,inactive: -0.061,inactive: -0.038,inactive: -0.017,inactive: 0.067,inactive: 0.126,inactive: -0.022,inactive: 0.083,inactive: -0.007,inactive: 0.016
MON1B (UniProt Q7L1V2),inactive: 0.064,inactive: -0.003,inactive: 0.071,inactive: 0.019,inactive: -0.058,inactive: -0.005,inactive: 0.032,inactive: -0.036,inactive: 0.024,inactive: 0.005
MICAL1 isoform 4 (UniProt Q8TDZ2),inactive: 0.1,inactive: -0.096,inactive: 0.021,inactive: 0.116,inactive: 0.2,inactive: 0.012,inactive: 0.136,inactive: 0.11,inactive: 0.186,–
MPHOSPH8 isoform 2 (UniProt Q99549),inactive: -0.159,inactive: 0.179,inactive: -0.159,inactive: -0.022,inactive: -0.013,inactive: -0.02,inactive: -0.1,inactive: -0.002,–,–

# Only log2 fold change [2], for some of the entries so far:
Target,log2 fold change [2]
MRPL41 (UniProt Q8IXM3),inactive: -0.037
MRPL21 (UniProt Q7Z2W9),inactive: 0.001
